From the supplement of paper PMC11438910
The list shows a part of the results. Most of these values are background signal.

Key:
Assay in all cases: fluorescence intensity of antibody binding to polysaccharide-coupled beads; higher = stronger binding
[1] = target: pneumococcal polysaccharide Pn28A
[2] = target: pneumococcal polysaccharide Pn28F
[3] = target: pneumococcal polysaccharide Pn29
[4] = target: pneumococcal polysaccharide Pn3
[5] = target: pneumococcal polysaccharide Pn31
[6] = target: pneumococcal polysaccharide Pn32A
[7] = target: pneumococcal polysaccharide Pn32F
[8] = target: pneumococcal polysaccharide Pn33A
[9] = target: pneumococcal polysaccharide Pn33B
[10] = target: pneumococcal polysaccharide Pn33C
[11] = target: pneumococcal polysaccharide Pn33D
[12] = target: pneumococcal polysaccharide Pn33F
[13] = antibody concentration 2337.65 ng/mL
[14] = antibody concentration 12500 ng/mL
[15] = antibody concentration 0.1 ng/mL
[16] = antibody concentration 0.534724 ng/mL
[17] = antibody concentration 2.8593 ng/mL
[18] = antibody concentration 15.2894 ng/mL
[19] = antibody concentration 81.7561 ng/mL
[20] = antibody concentration 437.17 ng/mL

B1: 4-173.5 (protein)
chain 1: QLQLQESGPGLVKPSETLSLTCAVSGDSISSNYWSWIRQPPGKGLEWIGRISDGGGSTDYNPSLKSRVTISTDTSKNQFSLKLNSVTAADTAVYFCARGSYRVDYWGQGVLVTVSS
chain 2: QAALTQPPSMSGSPGQSVTISCTGASSDIGGYNRVSWYQQHPANAPKLMIYDVSKRPSGVSDRFSGSKSGNTASLTISGLQADDEADYYCSSYAHINTALFGGGTRLTVL
fluorescence intensity [1, 13]: 634 MFI
fluorescence intensity [1, 14]: 1620 MFI
fluorescence intensity [2, 15]: 29 MFI
fluorescence intensity [2, 16]: 29.8 MFI
fluorescence intensity [2, 17]: 29.5 MFI
fluorescence intensity [2, 18]: 35 MFI
fluorescence intensity [2, 19]: 53.8 MFI
fluorescence intensity [2, 20]: 205 MFI
fluorescence intensity [2, 13]: 955 MFI
fluorescence intensity [2, 14]: 2110 MFI
fluorescence intensity [3, 15]: 17 MFI
fluorescence intensity [3, 16]: 17 MFI
fluorescence intensity [3, 17]: 23.2 MFI
fluorescence intensity [3, 18]: 74.8 MFI
fluorescence intensity [3, 19]: 338 MFI
fluorescence intensity [3, 20]: 1400 MFI
fluorescence intensity [3, 13]: 3500 MFI
fluorescence intensity [3, 14]: 5080 MFI
fluorescence intensity [4, 15]: 13.5 MFI
fluorescence intensity [4, 16]: 12.5 MFI
fluorescence intensity [4, 17]: 13.5 MFI
fluorescence intensity [4, 18]: 14.8 MFI
fluorescence intensity [4, 19]: 14 MFI
fluorescence intensity [4, 20]: 16 MFI
fluorescence intensity [4, 13]: 20 MFI
fluorescence intensity [4, 14]: 40 MFI
fluorescence intensity [5, 15]: 15 MFI
fluorescence intensity [5, 16]: 13.8 MFI
fluorescence intensity [5, 17]: 16.8 MFI
fluorescence intensity [5, 18]: 27 MFI
fluorescence intensity [5, 19]: 108 MFI
fluorescence intensity [5, 20]: 476 MFI
fluorescence intensity [5, 13]: 1380 MFI
fluorescence intensity [5, 14]: 2170 MFI
fluorescence intensity [6, 15]: 18 MFI
fluorescence intensity [6, 16]: 16.5 MFI
fluorescence intensity [6, 17]: 17.5 MFI
fluorescence intensity [6, 18]: 18 MFI
fluorescence intensity [6, 19]: 23 MFI
fluorescence intensity [6, 20]: 52.5 MFI
fluorescence intensity [6, 13]: 279 MFI
fluorescence intensity [6, 14]: 918 MFI
fluorescence intensity [7, 15]: 28.5 MFI
fluorescence intensity [7, 16]: 27 MFI
fluorescence intensity [7, 17]: 25.8 MFI
fluorescence intensity [7, 18]: 30 MFI
fluorescence intensity [7, 19]: 35.5 MFI
fluorescence intensity [7, 20]: 62.5 MFI
fluorescence intensity [7, 13]: 214 MFI
fluorescence intensity [7, 14]: 700 MFI
fluorescence intensity [8, 15]: 18 MFI
fluorescence intensity [8, 16]: 19 MFI
fluorescence intensity [8, 17]: 19 MFI
fluorescence intensity [8, 18]: 17.5 MFI
fluorescence intensity [8, 19]: 19 MFI
fluorescence intensity [8, 20]: 36.8 MFI
fluorescence intensity [8, 13]: 159 MFI
fluorescence intensity [8, 14]: 782 MFI
fluorescence intensity [9, 15]: 18 MFI
fluorescence intensity [9, 16]: 18 MFI
fluorescence intensity [9, 17]: 19.5 MFI
fluorescence intensity [9, 18]: 21.5 MFI
fluorescence intensity [9, 19]: 39.5 MFI
fluorescence intensity [9, 20]: 228 MFI
fluorescence intensity [9, 13]: 1270 MFI
fluorescence intensity [9, 14]: 2380 MFI
fluorescence intensity [10, 15]: 20 MFI
fluorescence intensity [10, 16]: 20 MFI
fluorescence intensity [10, 17]: 23.5 MFI
fluorescence intensity [10, 18]: 53.5 MFI
fluorescence intensity [10, 19]: 348 MFI
fluorescence intensity [10, 20]: 1540 MFI
fluorescence intensity [10, 13]: 4580 MFI
fluorescence intensity [10, 14]: 6590 MFI
fluorescence intensity [11, 15]: 17.2 MFI
fluorescence intensity [11, 16]: 15 MFI
fluorescence intensity [11, 17]: 15 MFI
fluorescence intensity [11, 18]: 18 MFI
fluorescence intensity [11, 19]: 27.8 MFI
fluorescence intensity [11, 20]: 97.5 MFI
fluorescence intensity [11, 13]: 738 MFI
fluorescence intensity [11, 14]: 1740 MFI
fluorescence intensity [12, 15]: 13 MFI
fluorescence intensity [12, 16]: 12.5 MFI
fluorescence intensity [12, 17]: 14 MFI
fluorescence intensity [12, 18]: 16 MFI
fluorescence intensity [12, 19]: 39.5 MFI
fluorescence intensity [12, 20]: 201 MFI
fluorescence intensity [12, 13]: 1000 MFI
fluorescence intensity [12, 14]: 2370 MFI
